From paper PMC6300487

B1: Disheveled 1 (protein, UniProt O14640 1-695)
chain: MAETKIIYHMDEEETPYLVKLPVAPERVTLADFKNVLSNRPVHAYKFFFKSMDQDFGVVKEEIFDDNAKLPCFNGRVVSWLVLAEGAHSDAGSQGTDSHTDLPPPLERTGGIGDSRPPSFHPNVASSRDGMDNETGTESMVSHRRERARRRNREEAARTNGHPRGDRRRDVGLPPDSASTALSSELESSSFVDSDEDGSTSRLSSSTEQSTSSRLIRKHKRRRRKQRLRQADRASSFSSITDSTMSLNIVTVTLNMERHHFLGISIVGQSNDRGDGGIYIGSIMKGGAVAADGRIEPGDMLLQVNDVNFENMSNDDAVRVLREIVSQTGPISLTVAKCWDPTPRSYFTVPRADPVRPIDPAAWLSHTAALTGALPRYGTSPCSSAVTRTSSSSLTSSVPGAPQLEEAPLTVKSDMSAVVRVMQLPDSGLEIRDRMWLKITIANAVIGADVVDWLYTHVEGFKERREARKYASSLLKHGFLRHTVNKITFSEQCYYVFGDLCSNLATLNLNSGSSGTSDQDTLAPLPHPAAPWPLGQGYPYQYPGPPPCFPPAYQDPGFSYGSGSTGSQQSEGSKSSGSTRSSRRAPGREKERRAAGAGGSGSESDHTAPSGVGSSWRERPAGQLSRGSSPRSQASATAPGLPPPHPTTKAYTVVGGPPGGPPVRELAAVPPELTGSRQSFQKAMGNPCEFFVDIM
B2: Catsper Channel Auxiliary Subunit Epsilon (protein, UniProt Q5SY80 20-951)
chain: LWRYSTNSPNYRIFSTRSTIKLEYEGTLFTEWSVPETCFVLNKSSPTTELRCSSPGVHAIKPIVTGPDEEERYLFVESSHTCFLWYYRVRHFFNNFTQLITVWAYDPESADPDELLGNAEEPSINSIVLSTQMATLGQKPVIHTVLKRKVYSSNEKMRRGTWRIVVPMTKDDALKEIRGNQVTFQDCFIADFLILLTFPLLTIPEIPGYLPISSPRGSQLMASWDACVVASAVLVTDMETFHTTDSFKSWTRIRVPPDILSDDERRSVAHVILSRDGIVFLINGVLYIKSFRGFIRLGGIVNLPDGGITGISSRKWCWVNYLLKAKGRRSTFAVWTENEIYLGSILLKFARLVTTTELKNILSLSVTATLTIDRVEYTGHPLEIAVFLNYCTVCNVTKKIFLVIYNEDTKQWVSQDFTLDAPIDSVTMPHFTFSALPGLLLWNKHSIYYCYHNFTFTGILQTPAGHGNLSMLSNDSIIHEVFIDYYGDILVKMENNVIFYSKINTRDAVKLHLWTNYTTRAFIFLSTSGQTYFLYALDDGTIQIQDYPLHLEAQSIAFTTKDKCPYMAFHNNVAHVFYFLDKGEALTVWTQIVYPENTGLYVIVESYGPKILQESHEISFEAAFGYCTKTLTLTFYQNVDYERISDYFETQDKHTGLVLVQFRPSEYSKACPIAQKVFQIAVGCDDKKFIAIKGFSKKGCHHHDFSYVIEKSYLRHQPSKNLRVRYIWGEYGCPLRLDFTEKFQPVVQLFDDNGYVKDVEANFIVWEIHGRDDYSFNNTMAQSGCLHEAQTWKSMIELNKHLPLEEVWGPENYKHCFSYAIGKPGDLNQPYEIINSSNGNHIFWPMGHSGMYVFRVKILDPNYSFCNLTAMFAIETFGLIPSPSVYLVASFLFVLMLLFFTILVLSYFRYMRIYRRYIYEPLHKPQRKRKKN
B3: Vesicular, Overexpressed in Cancer, Pro-survival Protein 1 (protein, UniProt Q96AW1 23-172)
chain: KKHCWYFEGLYPTYYICRSYEDCCGSRCCVRALSIQRLWYFWFLLMMGVLFCCGAGFFIRRRMYPPPLIEEPAFNVSYTRQPPNPGPGAQQPGPPYYTDPGGPGMNPVGNSMAMAFQVPPNSPQGSVACPPPPAYCNTPPPPYEQVVKAK
B4: SEC23-interacting protein (protein, UniProt Q9Y6Y8 1-1000)
chain: MAERKPNGGSGGASTSSSGTNLLFSSSATEFSFNVPFIPVTQASASPASLLLPGEDSTDVGEEDSFLGQTSIHTSAPQTFSYFSQVSSSSDPFGNIGQSPLTTAATSVGQSGFPKPLTALPFTTGSQDVSNAFSPSISKAQPGAPPSSLMGINSYLPSQPSSLPPSYFGNQPQGIPQPGYNPYRHTPGSSRANPYIAPPQLQQCQTPGPPAHPPPSGPPVQMYQMPPGSLPPVPSSVQSPAQQQVPARPGAPSVQVPSPFLLQNQYEPVQPHWFYCKEVEYKQLWMPFSVFDSLNLEEIYNSVQPDPESVVLGTDGGRYDVYLYDRIRKAAYWEEEPAEVRRCTWFYKGDTDSRFIPYTEEFSEKLEAEYKKAVTTNQWHRRLEFPSGETIVMHNPKVIVQFQPSSVPDEWGTTQDGQTRPRVVKRGIDDNLDEIPDGEMPQVDHLVFVVHGIGPVCDLRFRSIIECVDDFRVVSLKLLRTHFKKSLDDGKVSRVEFLPVHWHSSLGGDATGVDRNIKKITLPSIGRFRHFTNETLLDILFYNSPTYCQTIVEKVGMEINHLHALFMSRNPDFKGGVSVAGHSLGSLILFDILSNQKDLNLSKCPGPLAVANGVVKQLHFQEKQMPEEPKLTLDESYDLVVENKEVLTLQETLEALSLSEYFSTFEKEKIDMESLLMCTVDDLKEMGIPLGPRKKIANFVEHKAAKLKKAASEKKAVAATSTKGQEQSAQKTKDMASLPSESNEPKRKLPVGACVSSVCVNYESFEVGAGQVSVAYNSLDFEPEIFFALGSPIAMFLTIRGVDRIDENYSLPTCKGFFNIYHPLDPVAYRLEPMIVPDLDLKAVLIPHHKGRKRLHLELKESLSRMGSDLKQGFISSLKSAWQTLNEFARAHTSSTQLQEELEKVANQIKEEEEKQVVEAEKVVESPDFSKDEDYLGKVGMLNGGRRIDYVLQEKPIESFNEYLFALQSHLCYWESEDTALLLLKEIYRTMNISPEQPQH

The binders below were run against T1, SFB-tagged WWOX (WW domain-containing oxidoreductase) (human) (UniProt Q9NZC7) (assay: affinity purification with mass spectrometry; tandem affinity purification from lysate (NETN buffer) of HEK293T cells stably expressing C-terminally SFB-tagged WWOX: streptavidin beads, elution with 2 mg/ml biotin, then S protein beads; LC-MS/MS; two replicates; hits filtered by MUSE interaction score and CRAPome frequency).
T1 sequence: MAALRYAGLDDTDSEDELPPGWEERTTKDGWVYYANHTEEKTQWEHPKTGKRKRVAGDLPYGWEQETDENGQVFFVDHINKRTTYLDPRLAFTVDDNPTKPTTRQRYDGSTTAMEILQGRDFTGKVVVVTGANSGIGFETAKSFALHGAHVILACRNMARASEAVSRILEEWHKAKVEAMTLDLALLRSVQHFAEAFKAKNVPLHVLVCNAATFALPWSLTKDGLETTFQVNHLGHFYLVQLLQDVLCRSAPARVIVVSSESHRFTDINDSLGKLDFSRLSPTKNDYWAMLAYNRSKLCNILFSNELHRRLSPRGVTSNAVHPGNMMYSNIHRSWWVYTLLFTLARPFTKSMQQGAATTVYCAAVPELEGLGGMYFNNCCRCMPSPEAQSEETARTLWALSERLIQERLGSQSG
With B1 the binding was “binds”.
For B2, the binding was “binds”.
For B3, the binding was “binds”.
In the case of B4, the binding is reported as “binds”.

These are yes or no findings as the source states them, for the method shown. Binding seen in cells or lysates may run through a third protein. Here binding means that the protein was enriched with, or labelled near, the bait; the list need not be complete. Sequences can lack the tags named with a protein.
